No constants are given. Whether binding was seen depends on the method and setting. Binding seen in cells or lysates may run through a third protein. A result given as binding can be weak or reduced; the word gives no strength.
Molecular target: ASC (apoptosis-associated speck-like protein containing a CARD) (rat (endogenous in hippocampus))
Experiment: co-IP; rat hippocampus lysates (500 ug) precipitated with 1 ug anti-ASC antibody overnight at 4 C, protein A agarose beads, washed five times with RIPA buffer, western blot; normal rats and rats exposed to CUS for 1, 2 or 3 weeks; IgG as negative control

Binder	binding
caspase-1 (caspase-1 p45, pro-caspase-1) (enzyme, UniProt P43527 1-402) MADKVLRAKRKQFINSVSVGTINGLLDELLEKRVLNQEEMDTIKLANITVMEKARDLCDHVTKKGPRASQMFITYICNEDCYLAEILELQSGPSAETVFVTEDSKGGHPFSSETKEKLNKEGGAFPGPSGSLKFCPLEIAQKLWKENHSEIYPIMKTPTRTRLALIICNTDFQHLSRRVGADVDLREMKLLLQDLGYTVKVKENLTALEMTKELKEFAACPEHKTSDSTFLVFMSHGLQEGICGITYSNEVADILKVDTIFQMMNTLKCPSLKDKPKVIIIQACRGEKQGVVLLKDSVGNSEEGFLTDAIFEDDGIKKAHIEKDFIAFCSSTPDNVSWRHPVRGSLFIESLIKHMKEYAWSCDLEDIFRKVRFSFEQPDSRLQMPTTERVTLTKRFYLFPGH	binds
active p10 caspase-1 (cleaved caspase-1) (domain or fragment, UniProt P43527 315-402) GIKKAHIEKDFIAFCSSTPDNVSWRHPVRGSLFIESLIKHMKEYAWSCDLEDIFRKVRFSFEQPDSRLQMPTTERVTLTKRFYLFPGH	binds

Reference: PMC5424302
